Measurements reported in PubChem BioAssay AID1259284 (Sanger Institute, 2017).

Aim: 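Kinase knock-downs that cut colorectal cancer cell growth alone or with targeted drugs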 (primary screen)
Cells: SW48 human colorectal cancer cells
Reagents: siRNA pool against human genes
Treatment: anchor drug BYL719 at 1 µM, cetuximab at 5 µg/ml or trametinib at 10 nM, or DMSO vehicle alone
Measured: 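Viability scaled to non-targeting control pool, robust z-score from controls, and synergy scores for each drug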
Scale: robust z-score, no drug: higher = more cells survive knock-down; viability, no drug: higher = more viable cells; synergy with BYL719 and synergy with trametinib and synergy with cetuximab: higher = stronger combined killing with drug
Hit rule: 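Called essential when the robust z-score of viability without drug falls below -3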
Meaning of the calls: active = essential without drug; inactive = no change without drug
The deposit covers 794 reagents; below is a random part of them. 16 of all reagents (2%) were called active. 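Calls concern knock-down without drug only; drug synergy was judged apart, with scores above 0.15 taken as synergy.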 No viability above 1 is reported: the scale is capped. Not stated in the record: the amount of reagent, the time to read-out.

target gene | robust z-score, no drug | viability, no drug (fraction of control) | synergy with BYL719 | synergy with trametinib | synergy with cetuximab | Call
SMAD2 | 0.426 | 1 | -0.0485 | -0.189 | -0.0374 | inactive
UCK2 | 0.426 | 1 | -0.235 | -0.188 | -0.165 | inactive
ATRX | 0.426 | 1 | -0.134 | -0.14 | 0.0349 | inactive
STKLD1 | 0.426 | 1 | -0.105 | -0.129 | -0.032 | inactive
ITPK1 | 0.426 | 1 | -0.112 | -0.252 | -0.165 | inactive
STK17B | 0.197 | 0.98 | -0.15 | 0.0154 | -0.107 | inactive
PRKAG2 | 0.426 | 1 | -0.152 | -0.00938 | -0.111 | inactive
CDK11A | 0.426 | 1 | -0.172 | -0.00679 | -0.147 | inactive
JAK1 | 0.426 | 1 | -0.231 | -0.251 | -0.0676 | inactive
DDR1 | 0.426 | 1 | -0.0997 | 0.0931 | -0.122 | inactive
ELF3 | -0.439 | 0.926 | -0.168 | 0.0501 | -0.0643 | inactive
CDK2 | 0.426 | 1 | -0.298 | -0.0934 | -0.165 | inactive
MAP3K11 | 0.426 | 1 | -0.153 | 0.017 | -0.165 | inactive
PRKX | 0.426 | 1 | -0.0971 | -0.124 | -0.000784 | inactive
DCLK1 | 0.299 | 0.989 | -0.0504 | 0.0468 | -0.0514 | inactive
PRKD2 | 0.426 | 1 | -0.333 | -0.151 | -0.165 | inactive
MAK | 0.426 | 1 | 0.0177 | 0.0171 | 0.0102 | inactive
TTK | -5.92 | 0.455 | -0.25 | -0.0861 | -0.11 | active
PHKB | 0.426 | 1 | -0.367 | -0.305 | -0.165 | inactive
PRKAA1 | 0.426 | 1 | -0.0791 | -0.025 | 0.0515 | inactive
IRAK2 | 0.426 | 1 | -0.367 | -0.0555 | -0.165 | inactive
NR2F2 | 0.426 | 1 | -0.144 | 0.0901 | 0.073 | inactive
PRPS2 | 0.393 | 0.997 | -0.0682 | 0.0296 | 0.161 | inactive
POLR2B | -4.34 | 0.591 | -0.337 | -0.305 | -0.183 | active
DMPK | 0.426 | 1 | 0.0685 | 0.0803 | 0.0782 | inactive
CAMK2N1 | -1.17 | 0.863 | -0.112 | -0.0152 | -0.054 | inactive
MAP2K2 | 0.426 | 1 | -0.234 | -0.082 | -0.0254 | inactive
PKDCC | 0.426 | 1 | -0.0973 | 0.0966 | -0.086 | inactive
WNK3 | 0.426 | 1 | -0.288 | -0.0815 | -0.0947 | inactive
STK24 | 0.426 | 1 | -0.269 | -0.082 | -0.0514 | inactive
TSSK6 | -0.464 | 0.924 | -0.0285 | 0.072 | 0.021 | inactive
MAP4K1 | -1.04 | 0.874 | -0.024 | -0.0809 | -0.0169 | inactive
PFKFB1 | 0.426 | 1 | 0.00566 | 0.117 | 0.0255 | inactive
PRKCI | 0.426 | 1 | 0.0231 | -0.0819 | 0.0064 | inactive
FXR1 | 0.426 | 1 | -0.242 | -0.174 | -0.0694 | inactive
SPEG | 0.426 | 1 | -0.168 | -0.103 | -0.0584 | inactive
NUAK1 | 0.426 | 1 | -0.149 | 0.0269 | -0.106 | inactive
PLK1 | -7.86 | 0.289 | -0.0785 | -0.0209 | -0.0466 | active
BUB1 | 0.426 | 1 | -0.0942 | -0.303 | 0.0639 | inactive
NUP107 | -1.19 | 0.862 | -0.175 | -0.104 | -0.144 | inactive
CDK13 | 0.426 | 1 | -0.277 | -0.0731 | -0.165 | inactive
GOLGA5 | -0.0466 | 0.959 | -0.263 | -0.24 | -0.183 | inactive
HIPK1 | 0.426 | 1 | -0.367 | -0.314 | -0.165 | inactive
STK39 | -1.13 | 0.866 | -0.18 | -0.143 | -0.109 | inactive
GRK2 | 0.426 | 1 | -0.115 | -0.0811 | -0.0625 | inactive
DLG1 | -0.105 | 0.954 | -0.192 | -0.0592 | 0.00817 | inactive
WEE1 | -0.805 | 0.894 | -0.0987 | -0.0184 | -0.0205 | inactive
PDIK1L | 0.426 | 1 | -0.234 | -0.157 | -0.000223 | inactive
DGKA | -2.3 | 0.766 | -0.0227 | 0.0348 | 0.0126 | inactive
EIF2AK1 | 0.426 | 1 | -0.193 | -0.19 | -0.165 | inactive
STK32B | -2.2 | 0.775 | -0.0237 | -0.176 | -0.064 | inactive
PINK1 | 0.426 | 1 | -0.0175 | 0.0242 | 0.0516 | inactive
TBX3 | 0.426 | 1 | -0.271 | -0.329 | -0.165 | inactive
DLG3 | 0.426 | 1 | -0.323 | -0.115 | -0.112 | inactive
EFNA5 | 0.426 | 1 | -0.198 | -0.286 | -0.0619 | inactive
ETNK1 | 0.426 | 1 | -0.303 | -0.335 | -0.165 | inactive
DAPK1 | 0.426 | 1 | -0.128 | -0.0877 | -0.153 | inactive
MAP3K4 | 0.426 | 1 | -0.161 | -0.0609 | 0.0242 | inactive
NTRK2 | 0.426 | 1 | -0.271 | -0.369 | -0.126 | inactive
SMAD4 | 0.426 | 1 | -0.142 | 0.0256 | -0.0616 | inactive
NADK | 0.426 | 1 | -0.142 | -0.0884 | -0.0582 | inactive
WNK2 | 0.426 | 1 | -0.367 | -0.233 | -0.165 | inactive
RPS6KB2 | 0.426 | 1 | -0.0404 | -0.0498 | 0.0871 | inactive

A few values from the list:
Under “viability, no drug (fraction of control)”, DDR1 reads 1
PRKD2, synergy with trametinib = -0.151
DLG1, synergy with trametinib → -0.0592
For “viability, no drug (fraction of control)”, STK17B has 0.98
CDK13, synergy with BYL719 → -0.277
Result for RPS6KB2 in “synergy with trametinib”: -0.0498
